Measurements reported in PubChem BioAssay AID1259254 (NCATS, 2017).

Assay: 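Gene knock-downs that lead to re-replication, shown by excess G2 DNA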 (primary screen)
Cell system: human HCT116 colorectal cancer cells
Reagent: single siRNA against human genes
Time to read-out: 3 days
Measurement: 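Imaged Hoechst DNA stain sorts each cell into a cycle phase by DNA amount; per plate, G2 fraction set to 0% for non-targeting and 100% for GMNN siRNA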
Direction: G2 robust z-score and G2 cells, % of GMNN control: higher = more G2 cells, more excess DNA replication; raw share of cells in G2: higher = larger share of cells with G2 DNA content
Hit rule: 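An siRNA counts as active if its G2 robust z-score lies at least 5 MADs above the screen median; here such calls match roughly 38% of GMNN control or more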
Shown is one part, drawn at random, of about 59,000 deposited reagents. In the full data, about 1,550 (2.6%) are marked active. 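G2 share is only a proxy for re-replication; each gene was hit by three separate siRNAs, and active genes were retested.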 Raw values are not corrected between plates. Reagents against one gene are numbered here. Not stated in the record: the amount of reagent.

gene,reagent,G2 robust z-score,"G2 cells, % of GMNN control",raw share of cells in G2 (%),Outcome
CTCF (GeneID 10664),1,-0.657,-1.65,2.98,inactive
CTCF (GeneID 10664),2,3.6,28.3,18.6,inactive
CTCF (GeneID 10664),3,0.628,7.39,6.43,inactive
FRS3 (GeneID 10817),1,-1.58,-8.12,1.8,inactive
FRS3 (GeneID 10817),2,0.654,7.57,7.26,inactive
FRS3 (GeneID 10817),3,-0.565,-1.01,2.8,inactive
AKT3 (GeneID 10000),1,-1.55,-7.91,3.13,inactive
AKT3 (GeneID 10000),2,-0.346,0.533,5.38,inactive
AKT3 (GeneID 10000),3,1.79,15.5,8.66,inactive
COX11 (GeneID 1353),1,0.867,9.07,8.2,inactive
COX11 (GeneID 1353),2,-0.00305,2.95,5.11,inactive
COX11 (GeneID 1353),3,0.1,3.67,6.33,inactive
KRTAP11-1 (GeneID 337880),1,4.82,36.9,16.7,inactive
KRTAP11-1 (GeneID 337880),2,1.26,11.8,8.42,inactive
KRTAP11-1 (GeneID 337880),3,-0.0609,2.54,5.21,inactive
OTOP3 (GeneID 347741),1,1.96,16.8,9.75,inactive
OTOP3 (GeneID 347741),2,1.97,16.9,10.6,inactive
OTOP3 (GeneID 347741),3,-0.108,2.21,5.08,inactive
RNF130 (GeneID 55819),1,1.77,15.5,13.2,inactive
RNF130 (GeneID 55819),2,3.2,25.5,13.6,inactive
RNF130 (GeneID 55819),3,0.338,5.35,6.56,inactive
FBLN2 (GeneID 2199),1,-0.827,-2.85,4.18,inactive
FBLN2 (GeneID 2199),2,1.57,14,8.64,inactive
FBLN2 (GeneID 2199),3,4.25,32.9,17.2,inactive
MTCL3 (GeneID 387104),1,-0.433,-0.077,4.6,inactive
MTCL3 (GeneID 387104),2,-0.956,-3.76,2.48,inactive
MTCL3 (GeneID 387104),3,-0.329,0.652,3.69,inactive
GPATCH1 (GeneID 55094),1,0.388,5.7,6.71,inactive
GPATCH1 (GeneID 55094),2,-0.0578,2.56,5.2,inactive
GPATCH1 (GeneID 55094),3,1.13,10.9,6.61,inactive
KIF17 (GeneID 57576),1,-0.117,2.14,6.53,inactive
KIF17 (GeneID 57576),2,-0.246,1.24,4.78,inactive
KIF17 (GeneID 57576),3,-0.408,0.0968,4.26,inactive

5 of these entries, set out differently:
| gene | reagent | G2 robust z-score | G2 cells, % of GMNN control | raw share of cells in G2 (%) | Outcome |
| --- | --- | --- | --- | --- | --- |
| KRTAP11-1 (GeneID 337880) | 3 | -0.0609 | 2.54 | 5.21 | inactive |
| OTOP3 (GeneID 347741) | 1 | 1.96 | 16.8 | 9.75 | inactive |
| OTOP3 (GeneID 347741) | 2 | 1.97 | 16.9 | 10.6 | inactive |
| OTOP3 (GeneID 347741) | 3 | -0.108 | 2.21 | 5.08 | inactive |
| RNF130 (GeneID 55819) | 1 | 1.77 | 15.5 | 13.2 | inactive |

Continued.
gene,reagent,G2 robust z-score,"G2 cells, % of GMNN control",raw share of cells in G2 (%),Outcome
ESRP1 (GeneID 54845),1,-0.642,-1.55,3.05,inactive
ESRP1 (GeneID 54845),2,-0.995,-4.03,2.57,inactive
ESRP1 (GeneID 54845),3,3.01,24.1,11.2,inactive
FBXL16 (GeneID 146330),1,-0.307,0.805,4.1,inactive
FBXL16 (GeneID 146330),2,0.836,8.85,5.65,inactive
FBXL16 (GeneID 146330),3,0.966,9.76,6.47,inactive
LINC01625 (GeneID 645434),1,1.17,11.2,8.01,inactive
LINC01625 (GeneID 645434),2,0.85,8.95,6.54,inactive
LINC01625 (GeneID 645434),3,-0.412,0.0716,3.07,inactive
GJC2 (GeneID 57165),1,3.08,24.6,17,inactive
GJC2 (GeneID 57165),2,-0.597,-1.23,3.25,inactive
GJC2 (GeneID 57165),3,0.566,6.95,5.25,inactive
ZNF516 (GeneID 9658),1,-0.974,-3.89,3.17,inactive
ZNF516 (GeneID 9658),2,-0.281,0.989,5.58,inactive
ZNF516 (GeneID 9658),3,-0.238,1.29,3.64,inactive
RPL29P32 (GeneID 390856),1,1.72,15.1,9.5,inactive
RPL29P32 (GeneID 390856),2,-0.421,0.00404,4.79,inactive
RPL29P32 (GeneID 390856),3,-0.0043,2.94,4.88,inactive
KCNG1 (GeneID 3755),1,0.214,4.47,6.12,inactive
KCNG1 (GeneID 3755),2,-0.375,0.326,5.41,inactive
KCNG1 (GeneID 3755),3,0.461,6.21,6.88,inactive
APAF1 (GeneID 317),1,0.151,4.03,7.19,inactive
APAF1 (GeneID 317),2,-1.29,-6.08,1.86,inactive
APAF1 (GeneID 317),3,-0.721,-2.11,2.7,inactive
CD302 (GeneID 9936),1,-0.896,-3.33,3.4,inactive
CD302 (GeneID 9936),2,-0.687,-1.86,4.5,inactive
CD302 (GeneID 9936),3,-0.106,2.22,3.96,inactive
P2RX7 (GeneID 5027),1,-0.503,-0.574,5.08,inactive
P2RX7 (GeneID 5027),2,1.12,10.9,8.46,inactive
P2RX7 (GeneID 5027),3,0.22,4.51,6.14,inactive
LRG1 (GeneID 116844),1,0.303,5.1,7.15,inactive
LRG1 (GeneID 116844),2,-0.377,0.316,5.82,inactive
LRG1 (GeneID 116844),3,-0.206,1.52,5.06,inactive
PLAAT3 (GeneID 11145),1,-0.313,0.767,6.33,inactive
PLAAT3 (GeneID 11145),2,1,10,7.53,inactive
PLAAT3 (GeneID 11145),3,-1.06,-4.5,2.03,inactive
VDAC2 (GeneID 7417),1,-0.225,1.38,5.79,inactive
VDAC2 (GeneID 7417),2,-0.786,-2.56,3.92,inactive
VDAC2 (GeneID 7417),3,0.825,8.77,7.8,inactive
DUSP26 (GeneID 78986),1,-1.34,-6.45,2.7,inactive
DUSP26 (GeneID 78986),2,4.77,36.5,15.3,inactive
DUSP26 (GeneID 78986),3,-1.31,-6.23,1.62,inactive
HCLS1 (GeneID 3059),1,0.34,5.36,5.59,inactive
HCLS1 (GeneID 3059),2,0.96,9.72,9.4,inactive
HCLS1 (GeneID 3059),3,1.53,13.7,8.09,inactive
FRMPD3 (GeneID 84443),1,0.0814,3.54,5.29,inactive
FRMPD3 (GeneID 84443),2,-0.541,-0.836,3.21,inactive
FRMPD3 (GeneID 84443),3,-0.518,-0.676,2.2,inactive
GJA5 (GeneID 2702),1,0.158,4.08,5.08,inactive
GJA5 (GeneID 2702),2,-0.638,-1.52,4.13,inactive
GJA5 (GeneID 2702),3,1.04,10.3,6.85,inactive
ALG1L6P (GeneID 339879),1,0.707,7.94,7.39,inactive
ALG1L6P (GeneID 339879),2,1.61,14.3,8.9,inactive
ALG1L6P (GeneID 339879),3,-0.233,1.33,3.84,inactive
